Test results reported in patent US20200123175A1, “NOVEL ISOTHIAZOLO-BASED BICYCLES, PROCESSES FOR THEIR PREPARATION AND THEIR USE AS HERBICIDES AND/OR PLANT GROWTH REGULATORS” (Bayer CropScience Aktiengesellschaft, priority 2017, published 2020).
Some entries share one result that the patent states for a list of compounds.

Legend:
[1] = tested on: Septoria tritici; test: In vivo preventive test on Septoria tritici (leaf spot on wheat); conditions: wheat plants, evaluated 24 days after the inoculation
[2] = tested on: Botrytis cinerea; test: In vivo preventive test on Botrytis cinerea (grey mould); conditions: 100 ppm of active ingredient; gherkin plants; evaluated 4 to 5 days after the inoculation
[3] = tested on: Uromyces appendiculatus; test: In vivo preventive test on Uromyces appendiculatus (bean rust); conditions: 500 ppm of active ingredient; bean plants; evaluated 11 days after the inoculation
[4] = tested on: Alternaria brassicae; test: In vivo preventive test on Alternaria brassicae (leaf spot on radish or cabbage); conditions: 500 ppm of active ingredient; radish or cabbage plants; evaluated 6 days after the inoculation
[5] = tested on: Sphaerotheca fuliginea; test: In vivo preventive test on Sphaerotheca fuliginea (powdery mildew on cucurbits); conditions: gherkin plants, evaluated 15 days after the inoculation
[6] = tested on: Puccinia recondita; test: In vivo preventive test on Puccinia recondita (brown rust on wheat); conditions: 500 ppm of active ingredient; wheat plants; evaluated 11 days after the inoculation
Description: (§1) 4) Example: In Vivo Preventive Test on Puccinia recondita (Brown Rust on Wheat) [table] The active ingredients were made soluble and homogenized in a mixture of Dimethyl sulfoxide/Acetone//Tween® 80 and then diluted in water to the desired concentration. The young plants of wheat were treated by spraying the active ingredient prepared as described above. Control plants were treated only with an aqueous solution of Acetone/Dimethyl sulfoxide/Tween® 80. After 24 hours, the plants were contaminated by spraying the leaves with an aqueous suspension of Puccinia recondita spores.

[7] = tested on: Pyrenophora teres; test: In vivo preventive test on Pyrenophora teres (net blotch on barley); conditions: 500 ppm of active ingredient; barley plants; evaluated 14 days after the inoculation
Description: as §1, with “5)” for “4)”, “Pyrenophora teres (Net Blotch” for “Puccinia recondita (Brown Rust”, “Barley)” for “Wheat)”, “barley” for “wheat”, “Pyrenophora teres” for “Puccinia recondita”

## Cn1cnc2c(NC(=O)C(F)F)nsc2c1=O [Example I-48]
[1]; 500 ppm of active ingredient
  efficacy: at least 70%

## Nc1nsc2c1NCN(CC1CCCCCC1)C2=O [Example I-59, 3-amino-6-(cycloheptylmethyl)-4,5-dihydroisothiazolo[4,5-d]pyrimidin-7-one]
[2]
  efficacy: at least 70%
[3]
  efficacy: at least 70%
[4]
  efficacy: at least 70%
[5]; 100 ppm of active ingredient
  efficacy: at least 70%
[6]
  efficacy: at least 70%
[1]; 100 ppm of active ingredient
  efficacy: at least 70%

## Nc1nsc2c(=O)n(Cc3ccc(Cl)cc3)cnc12 [Example I-16]
[1]; 500 ppm of active ingredient
  efficacy: at least 70%

## CC(c1ccccc1)n1cnc2c(N)nsc2c1=O (stereo not drawn) [Example I-10]
[1]; 500 ppm of active ingredient
  efficacy: at least 70%

## O=C(Nc1nsc2c(=O)n(Cc3ccccn3)cnc12)c1cc(Cl)cc(Cl)c1 [Example I-21]
[1]; 100 ppm of active ingredient
  efficacy: at least 70%

## CC(C)C(=O)Nc1nsc2c(=O)n(Cc3ccccn3)cnc12 [Example I-47]
[1]; 500 ppm of active ingredient
  efficacy: at least 70%

## O=C(Nc1nsc2c(=O)n(Cc3ccccn3)cnc12)c1ccc(Cl)cc1 [Example I-19]
[1]; 100 ppm of active ingredient
  efficacy: at least 70%

## CC(c1ccccc1Cl)n1cnc2c(N)nsc2c1=O (stereo not drawn) [Example I-08]
[1]; 500 ppm of active ingredient
  efficacy: at least 70%
[7]
  efficacy: at least 70%

## Nc1nsc2c(=O)n(Cc3ccc(F)cc3)cnc12 [Example I-14, 3-amino-6-[(4-fluorophenyl)methyl]isothiazolo[4,5-d]pyrimidin-7-one]
[4]
  efficacy: at least 70%
[5]; 500 ppm of active ingredient
  efficacy: at least 70%
[6]
  efficacy: at least 70%
[1]; 500 ppm of active ingredient
  efficacy: at least 70%

## CC(C)C(=O)Nc1nsc2c(=O)n(C)cnc12 [Example I-50]
[1]; 100 ppm of active ingredient
  efficacy: at least 70%

## O=C(Nc1nsc2c(=O)n(CC3CCCCC3)cnc12)C(F)F [Example I-44]
[4]
  efficacy: at least 70%
[6]
  efficacy: at least 70%
